Source: PubChem BioAssay (NCATS)
The shares of active, inactive and inconclusive entries below differ from those in the screen. For some of these results: Potencies of inconclusive entries are doubtful fits and often do not repeat. Active and inactive are the calls of the source. Unless noted, calls come from the whole dose curve; as a rule, active = well fitted curve in either direction with a large enough effect (not every such curve was filed as active); inconclusive = small, poorly fitted or top-dose-only effect, or another doubt; inactive = flat fitted curve, though single readings scatter.

Chains of the proteins cited; added tags and fusions are not shown. Lines headed by an entry give the natural chain unless they say otherwise; changes in a name come on top.
UniProt Q07343: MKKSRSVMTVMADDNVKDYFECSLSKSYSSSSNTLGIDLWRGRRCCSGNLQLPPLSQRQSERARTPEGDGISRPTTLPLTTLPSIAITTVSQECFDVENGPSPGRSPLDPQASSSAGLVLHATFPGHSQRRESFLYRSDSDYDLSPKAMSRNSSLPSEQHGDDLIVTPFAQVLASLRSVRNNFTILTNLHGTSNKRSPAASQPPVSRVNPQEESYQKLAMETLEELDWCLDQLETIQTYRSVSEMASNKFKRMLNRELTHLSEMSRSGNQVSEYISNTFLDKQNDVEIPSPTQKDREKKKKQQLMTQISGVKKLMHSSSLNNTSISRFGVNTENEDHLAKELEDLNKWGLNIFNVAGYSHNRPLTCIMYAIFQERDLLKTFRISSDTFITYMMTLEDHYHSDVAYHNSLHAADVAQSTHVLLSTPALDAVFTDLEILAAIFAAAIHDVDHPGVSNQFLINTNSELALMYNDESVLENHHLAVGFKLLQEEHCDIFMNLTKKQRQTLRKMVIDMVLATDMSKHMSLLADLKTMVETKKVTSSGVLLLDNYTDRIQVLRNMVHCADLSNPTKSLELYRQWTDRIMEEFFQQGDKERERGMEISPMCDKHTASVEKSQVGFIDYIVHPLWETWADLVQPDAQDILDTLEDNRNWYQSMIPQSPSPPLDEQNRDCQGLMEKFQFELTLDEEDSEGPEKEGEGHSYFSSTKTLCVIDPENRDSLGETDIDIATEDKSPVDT
UniProt P11712, whole entry, looked up: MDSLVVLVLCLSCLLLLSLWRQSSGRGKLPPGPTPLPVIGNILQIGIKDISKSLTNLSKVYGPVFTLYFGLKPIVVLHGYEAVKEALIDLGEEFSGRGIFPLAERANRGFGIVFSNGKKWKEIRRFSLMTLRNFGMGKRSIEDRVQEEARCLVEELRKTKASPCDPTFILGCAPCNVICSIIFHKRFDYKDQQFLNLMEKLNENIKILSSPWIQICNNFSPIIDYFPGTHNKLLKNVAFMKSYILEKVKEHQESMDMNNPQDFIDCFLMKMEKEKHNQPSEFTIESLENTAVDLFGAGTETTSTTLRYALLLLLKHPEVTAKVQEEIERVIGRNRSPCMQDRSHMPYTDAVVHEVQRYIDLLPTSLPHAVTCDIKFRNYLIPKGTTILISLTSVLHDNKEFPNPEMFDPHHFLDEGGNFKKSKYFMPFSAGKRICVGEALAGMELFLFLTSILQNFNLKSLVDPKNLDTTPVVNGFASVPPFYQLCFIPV

test system: not listed separately; test: Stat Signaling Pathway (AID 446); conditions: ME-180 (cervical carcinoma) SIE beta-lactamase reporter, IL-6 stimulated, 5 h; at 38 µM (top of the series) unless noted;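 note: ME-180 cervical cancer cells given 40 pM IL-6 alongside compound; SIE-controlled beta-lactamase reporter measured as 460/530 nm FRET emission ratio; % is set by controls: 0 for no effect and ±100 for the full control effect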
Procedure, shortened: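 Normalization used AC90 stimulation (300 pM IL-6) and AC90 inhibition (125 nM pan-JAK inhibitor at 40 pM IL-6). The underlying signal is SIE-driven beta-lactamase in ME-180 cells after 5 h IL-6 exposure with compound.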

| SMILES | activity, negative = inhibition |
| --- | --- |
| C[C@@H]1[C@H]2C=C[C@@H]1[C@@H](c1c3ccc(=O)c(O)c-3oc3c(O)c(O)ccc13)[C@@H]2C(=O)O | inconclusive: -80.2% [inhibitor] [at 7.69 µM] |
| CCCN1CC[C@@H]2c3cc(O)ccc3CC[C@H]21 | inactive: -6.76% |
| CCc1ccc(CCN2CCCCC2)nc1 | inconclusive: -0.171% [inhibitor] [at 7.69 µM] |
| CC[C@]1(C2=NCCN2)Cc2ccccc2O1 | inconclusive: -34.9% [inhibitor] |
| CN1CCN(C(=O)O[C@@H]2c3nccnc3C(=O)N2c2ccc(Cl)cn2)CC1 | inactive: -9.87% |

biological target: Mitogen-activated protein kinase 10 (Mus musculus) (UniProt Q61831); test: JNK3 AlphaScreen Assay (AID 530); conditions: JNK3 lysate, c-Jun phosphorylation; activity change, negative = inhibition: at 57.1 µM (top of the series);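 note: kinase came from lysate of stimulated human HepG2 cells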; note: potency is the fitted concentration of half-maximal effect;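 for activity change, negative = inhibition: signal reports phosphorylation of biotinylated GST-cJun 1-79 at Ser73 with 10 µM ATP; % is set by controls: 0 for no effect and ±100 for the full control effect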
Procedure, shortened: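 qHTS titrations with 15 min compound pre-incubation before adding ATP (10 uM final). Read-out: AlphaScreen of Ser73-phosphorylated biotin-GST-cJun using HepG2 lysate JNK3 activated by IL-1β and TNFα.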

| SMILES | Potency | activity change, negative = inhibition |
| --- | --- | --- |
| CN1[C@@H]2CC[C@H]1CC(O[C@@H](c1ccccc1)c1ccc(Cl)cc1)C2 (stereo not given in full) | inconclusive: 10 µM [activator, full curve, poor fit] | inconclusive: 16.2% |
| C[C@@H]1[C@H]2C=C[C@@H]1[C@@H](c1c3ccc(=O)c(O)c-3oc3c(O)c(O)ccc13)[C@@H]2C(=O)O | inconclusive: 3.98 µM [inhibitor, single point] | – |
| N[C@@H](Cc1cc(O)c(O)cc1O)C(=O)O | inconclusive: 7.94 µM [inhibitor, partial curve] | – |
| C=CCCN1C[C@@H]2C[C@H](C1)c1cccc(=O)n1C2 | inactive | – |
| COC1=C[C@H]2[C@@H]3Cc4ccc(OC)c(O)c4[C@@]2(CCN3C)CC1=O | inactive | – |
| c1cc2c(cc1[C@H]1OC[C@H]3[C@@H]1CO[C@H]3c1ccc3c(c1)OCO3)OCO2 | inactive | – |
| CCCN[C@@H]1CCc2c(OC)cccc2[C@@H]1C | – | inconclusive: 13.4% |
| CCOC(=O)c1ncn2c1[C@H]1CCCN1C(=O)c1cc(OC)ccc1-2 | inactive | – |
| O=C(O)C[C@H]1NCc2cc3ccccc3nc21 | – | inactive: 1.75% [at 11.4 µM] |
| C[C@@]12CCC[C@](C)(C(=O)O)[C@@H]1CCc1ccc(O)cc12 | inactive | – |
| O=C(Cc1ccc(Cl)c(Cl)c1)N1CCCC[C@H]1CN1CCCC1 | inconclusive: 0.00316 µM [inhibitor, full curve, poor fit] | – |
| O=C(Nc1cccc(F)c1)N1CC2(CCN(C(=O)Oc3ccccc3)CC2)C1 | inactive | – |

An excerpt from above in order of molar mass, descending.

| SMILES | Potency | activity change, negative = inhibition |
| --- | --- | --- |
| O=C(Nc1cccc(F)c1)N1CC2(CCN(C(=O)Oc3ccccc3)CC2)C1 | inactive | – |
| O=C(Cc1ccc(Cl)c(Cl)c1)N1CCCC[C@H]1CN1CCCC1 | inconclusive: 0.00316 µM [inhibitor, full curve, poor fit] | – |
| CCCN[C@@H]1CCc2c(OC)cccc2[C@@H]1C | – | inconclusive: 13.4% |

biological target: 3',5'-cyclic-AMP phosphodiesterase 4B (Homo sapiens) (UniProt Q07343); test: qHTS Assay for Inhibitors of PDE-IV (AID 607; active = well fitted activation curve with a large enough effect in the main read-out, with a control signal flat, not every such curve was filed as active; inconclusive = small, poorly fitted or top-dose-only effect, or effect the other way, or a change in a side signal; note: potency is the fitted concentration of half-maximal effect; for activation (PDE inhibition): % of control where 0% means no effect); conditions: HEK293 ACTOne CNG channel cells, membrane potential fluorescence; activation (PDE inhibition): at 22.9 µM (top of the series)
Procedure, shortened: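 HEK293 ACTOne cells with CNG channel (1000/well), endogenous PDE4; membrane potential dye, compounds up to 22.9 uM final. Fluorescence Ex 535/Em 590; RO 20-1724 (100 uM final) as reference.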

| SMILES | Potency |
| --- | --- |
| CC(C)[C@@H]1CN[C@H](C(=O)O)[C@@H]1CC(=O)O | inconclusive: 19 µM [inhibitor, single point] |
| COc1cc2c(cc1OC)-c1c(O)c(OC)cc3c1[C@@H](C2)N(C)CC3 | inactive |
| CC1=CC(=O)C2=C(C)C[C@H](O)[C@@H]3[C@@H](OC(=O)[C@H]3C)[C@H]12 | inconclusive: 15.1 µM [inhibitor, partial curve] |
| COc1ccc(CNC(=O)/C=C\c2ccc3[nH]cc(CCN(C)C)c3c2)cc1 | inconclusive: 9.51 µM [rising, partial curve] |
| COc1ccc2c(c1OC)C(=O)O[C@@H]2[C@H]1c2cc3c(cc2CCN1C)OCO3 | inconclusive: 15.1 µM [inhibitor, single point] |
| CC[C@H]1CN2CC[C@@H]1C[C@H]2[C@@H](O)c1ccnc2ccc(OC)cc12 | inconclusive: 9.51 µM [activator, partial curve] |
| C=CCCN1C[C@@H]2C[C@H](C1)c1cccc(=O)n1C2 | inconclusive: 7.55 µM [activator, partial curve, poor fit] |
| C=C[C@H]1CN2CC[C@@H]1C[C@H]2[C@@H](O)c1ccnc2ccccc12 | inactive |
| Cc1o[nH]c(=O)c1C[C@H](N)C(=O)O | inconclusive: 15.1 µM [inhibitor, single point] |
| COc1cc2c(cc1O)CCN[C@H]2C | inconclusive: 19 µM [inhibitor, single point] |
| CCN1C[C@@]2(COC)[C@H](O)C[C@H](OC)[C@@]34[C@@H]5C[C@@]6(O)[C@H](OC(=O)c7ccccc7)[C@H]5[C@@](OC(C)=O)([C@H]([C@@H](OC)[C@H]23)[C@H]14)[C@H](O)[C@@H]6OC | inconclusive: 19 µM [inhibitor, single point] |
| C[C@](N)(CCP(=O)(O)O)C(=O)O | inconclusive: 19 µM [inhibitor, single point] |
| C[C@@]12CCC[C@](C)(C(=O)O)[C@@H]1CCc1ccc(O)cc12 | inconclusive: 19 µM [inhibitor, single point] |
| O=C(Cc1ccc(Cl)c(Cl)c1)N1CCCC[C@H]1CN1CCCC1 | inconclusive: 19 µM [inhibitor, single point] |
| COc1cc2c(cc1OC)-c1c(OC)c(OC)c(CO)c3c1[C@H](C2)N(C)CC3 | inactive |
| O=C(O)Cc1cccnc1C(=O)O | inconclusive: 19 µM [inhibitor, single point] |

biological target: Cytochrome P450 2C9 (Homo sapiens) (UniProt P11712); test: qHTS Assay for Inhibitors and Substrates of Cytochrome P450 2C9 (AID 883; active = well fitted inhibition curve with a large enough effect; inconclusive = small, poorly fitted or top-dose-only effect; inactive = no such curve, though single readings can be large or run the other way; note: nearly all actives have a fitted effect of over 60% in size; note: potency is the fitted concentration of half-maximal effect; for activity change, negative = inhibition: % is set by controls: 0 for no effect and ±100 for the full control effect); conditions: recombinant CYP2C9, luciferin-H luminescence, 60 min; series mostly up to 57.1 µM
Procedure, shortened: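 Inhibition of CYP2C9 is scored as loss of luminescence, with 57uM sulphaphenazole defining 100% inhibition. Substrate Luciferin-H is used at 100uM, equal to its KM; enzyme at 10nM in 25mM KPO4, 60 min at 37C with NADPH regeneration.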

| SMILES | Potency |
| --- | --- |
| CC1=CC(=O)C2=C(C)C[C@H](O)[C@@H]3[C@@H](OC(=O)[C@H]3C)[C@H]12 | inactive |
| C[C@@H]1[C@H]2C=C[C@@H]1[C@@H](c1c3ccc(=O)c(O)c-3oc3c(O)c(O)ccc13)[C@@H]2C(=O)O | inconclusive: 7.94 µM [inhibitor, single point] |
| CCNC(C)(C)[C@@H](SS)c1ccc(Br)cc1 | inconclusive: 6.31 µM [inhibitor, single point] |
| COc1ccc(CNC(=O)/C=C\c2ccc3[nH]cc(CCN(C)C)c3c2)cc1 | inactive |
| CCN1C[C@@]2(COC)[C@H](O)C[C@H](OC)[C@@]34[C@@H]5C[C@@]6(O)[C@H](OC(=O)c7ccccc7)[C@H]5[C@@](OC(C)=O)([C@H]([C@@H](OC)[C@H]23)[C@H]14)[C@H](O)[C@@H]6OC | inactive |
| CN1CCN(C(=O)O[C@@H]2c3nccnc3C(=O)N2c2ccc(Cl)cn2)CC1 | inactive |
